Among all 310,000 compounds or so, about 17,000 (5.5%) were called active. Inconclusive means that the source gave no clear call. Such entries were picked first, then a sample of the others. The call rests on the fitted dose curve; in most records, active means well fitted inhibition curve with a large enough effect; inconclusive means small, poorly fitted or top-dose-only effect, or effect the other way; inactive means no such curve, though single readings can be large or run the other way. Potencies beside an inconclusive call are fits to weak or partial responses and may not hold up.
Target: Nuclear receptor ROR-gamma (Mus musculus) (UniProt P51450)
Experiment: qHTS for inhibitors of ROR gamma transcriptional activity; further: nearly all actives have a fitted effect of over 60% in size
Conditions: Drosophila S2 Gal4-RORgamma UAS-luciferase reporter, 20 h; activity change, negative = inhibition: at 53.6 µM (top of the series)
In short: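 Read-out: Photinus luciferase luminescence; inhibitors lower reporter signal. Insect Schneider cells with Gal4-ROR gamma fusion under metallothionein promoter, UAS reporter; 700 uM final copper sulfate induction, 20 hr, ambient temperature.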
On the % scale 0 is the no-effect control and ±100 the full control effect; potency means the concentration at half of the fitted maximal effect.

Amino acid sequences for entries named in this document (tags omitted). A change or cut given only in a name is not applied to a line headed by its entry.
UniProt P51450: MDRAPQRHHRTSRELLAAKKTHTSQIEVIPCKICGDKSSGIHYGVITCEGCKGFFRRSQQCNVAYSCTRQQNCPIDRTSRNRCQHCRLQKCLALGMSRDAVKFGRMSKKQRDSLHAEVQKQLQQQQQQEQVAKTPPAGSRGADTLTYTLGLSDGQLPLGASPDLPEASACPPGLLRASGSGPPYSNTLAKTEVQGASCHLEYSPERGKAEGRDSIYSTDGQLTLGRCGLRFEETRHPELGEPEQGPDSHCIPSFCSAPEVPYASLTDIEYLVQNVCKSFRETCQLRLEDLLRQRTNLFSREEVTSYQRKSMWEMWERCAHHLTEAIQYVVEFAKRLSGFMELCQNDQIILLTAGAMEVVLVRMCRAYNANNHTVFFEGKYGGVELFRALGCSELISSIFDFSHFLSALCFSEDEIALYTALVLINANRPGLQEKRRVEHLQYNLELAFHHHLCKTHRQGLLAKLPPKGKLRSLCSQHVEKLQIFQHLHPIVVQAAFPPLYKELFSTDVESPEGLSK

Activity change, negative = inhibition, inactive:
CCOC(=O)C1=C(C)C(c2ccccc2O)NC(=O)N1 (configuration not stated) 23.9%, NS(=O)(=O)c1ccc(CCNC(=O)c2cnc(Cl)c(Cl)c2)cc1 1.18%, Cc1occc1C(=O)N1CCN(c2ccc([N+](=O)[O-])cc2)CC1 -3.29%, O=P1(O)Oc2c(-c3ccccc3)cc3ccccc3c2-c2c(c(-c3ccccc3)cc3ccccc23)O1 14.7%, O=c1cc(-c2ccccc2)nc2cc(-c3ccc(Br)cc3)[nH]n12 -6.86%, Cc1ccc(C)c(OCC(=O)Nc2ccccc2C(=O)N2CCN(C)CC2)c1 -24.8%, COC(=O)c1ccccc1NC(=O)CSc1nnc(-c2cccnc2)n1N 9.99%, O=S(=O)(c1ccc(N2CCN(CCO)CC2)nc1)N1CCCCC1 13.1%, Cc1ccc2nc(C)cc(C(=O)Nc3nccs3)c2c1 -40.2%, O=C(Cc1cccs1)N/N=C/c1ccc(OCc2ccccc2)cc1 43.6%, CC(C)[C@H](N)C(=O)NC[C@H]1CC[C@H](C(=O)N[C@@H](Cc2ccccc2)C(=O)O)CC1 -7.34%, CNC(=O)C(=O)Nc1nc(C23CC4CC(CC(C4)C2)C3)cs1 -41.7%, O=C(Nc1cccc2ccccc12)/C(=C/c1ccc([N+](=O)[O-])cc1)NC(=O)c1ccccc1 -0.948%, COc1ccc(NC(=O)Cn2c(=O)n(CC3CCCO3)c(=O)c3cc(OC)c(OC)cc32)cc1OC (configuration not stated) -0.72%, CC1CCC(=O)N(CCC#N)CC1 (configuration not stated) 1.75%, CCCSc1nc2sc3c(c2c(=O)[nH]1)CC(C)(CC)OC3 (configuration not stated) -0.192%, Cc1ccc(N2C(=O)c3cccc4c(Oc5ccccc5[N+](=O)[O-])ccc(c34)C2=O)c(C)c1 16.4% [at 10 µM], O=C(CCN1C(=O)/C(=C/c2ccccc2Cl)SC1=S)Nc1cccnc1 34.6%, N#CC1(c2ccccc2)CCC(NCCc2ccccc2)CC1 (configuration not stated) -15.9%, Nc1c(C(=O)N/N=C/c2cccnc2)oc2nc(-c3ccco3)cc(-c3ccco3)c12 -1.45%, Cc1ccc(S(=O)(=O)N2CCOC2CNC(=O)C(=O)NCc2ccco2)cc1 (configuration not stated) 40.4%, O=C(COc1ccccc1[N+](=O)[O-])Nc1cc(Cl)ccc1C(=O)O 10.7%, CC1CCCCN1CC(=O)NC(c1ccccc1)c1ccccc1 (configuration not stated) 13.1%

Potency, inconclusive:
COc1ccc(NC(=O)/C(C#N)=C\c2cc(C)n(-c3ccc4c(c3)OCO4)c2C)cc1 7.94 µM [activator, partial curve], NC(=O)c1c(NC(=O)c2ccc(F)cc2)sc2c1CCC2 3.16 µM [activator, full curve], Cc1ccc(-c2nn(-c3ccccc3)cc2CNCc2ccccc2)cc1 31.6 µM [inhibitor, single point], O=C1NC(=Nc2ccc(Cl)cc2)SC1Cc1cccc(Cl)c1Cl (configuration not stated) 35.5 µM [inhibitor, single point], CCOC(=O)N1CCN(C(=O)CN2C(=O)COc3ccc(C)cc32)CC1 0.112 µM [inhibitor, full curve, poor fit], CCn1c(=O)c(C(=O)CN2CCN(S(=O)(=O)c3ccc(C)cc3C)CC2)c(N)n(Cc2ccccc2)c1=O 17.8 µM [activator, partial curve], COc1ccc(NC(=O)c2oc3ccccc3c2NC(=O)C2CC2)cc1OC 4.47 µM [activator, full curve, poor fit], COc1ccccc1N1C(=O)C=C(Sc2nc(C)cc(C)n2)C1=O 11.2 µM [inhibitor, single point], CCN(CC)S(=O)(=O)c1ccc(O)c(C(=O)OCC(=O)N(C)Cc2ccccc2)c1 12.6 µM [activator, partial curve], CCC(C)Nc1nc2c(c(=O)[nH]c(=O)n2C)n1CCC(C)C (configuration not stated) 1 µM [activator, full curve, poor fit], CC(=O)c1nn(-c2cccc(Br)c2)cc1C(=O)c1ccccc1 12.6 µM [inhibitor, single point], COc1ccccc1C1=NN(C(=S)Nc2ccccc2)C(c2ccco2)C1 (configuration not stated) 35.5 µM [inhibitor, single point], Nc1c(C(=O)Nc2ccc3c(c2)OCCO3)nnn1CCc1ccccc1 2.82 µM [activator, full curve], CCc1nc(SCC(=O)N2CCN(c3ccccc3)CC2)c2oc3ccccc3c2n1 14.1 µM [activator, single point], Cc1cc(N)n(-c2nc(-c3cccnc3)nc3ccccc23)n1 12.6 µM [inhibitor, single point], Cc1noc(C)c1C(=O)OCC(=O)Nc1c(F)cccc1F 15.8 µM [inhibitor, single point], O=C(CS(=O)c1ccc(C(F)(F)F)cc1[N+](=O)[O-])Oc1ccc(Cl)cc1 (configuration not stated) 14.1 µM [inhibitor, single point], CC1Cc2ccccc2N1C(=O)CSc1nc2c(c(=O)n(C)c(=O)n2C)n1Cc1ccccc1 (configuration not stated) 11.2 µM [activator, partial curve], O=C(NCC1CCCO1)c1sc(=S)n2c1[nH]c(=O)c1ccc(C(=O)N3CCCCC3)cc12 (configuration not stated) 17.8 µM [activator, single point], Cc1cc(C)n(/N=C/c2cc(Cl)cc(Cl)c2O)c(=O)c1 5.62 µM [inhibitor, partial curve], O=C(O)c1ccc(-c2ccc(-c3ccccc3)cc2)s1 2 µM [inhibitor, partial curve], O=C(CCCn1c(=S)[nH]c2ccccc2c1=O)N1CCN(c2cccc(Cl)c2)CC1 28.2 µM [inhibitor, single point], COc1cc(C(C(=O)NCC2CCCO2)N(C(=O)Cn2nnc3ccccc32)c2ccc(OC)c(OC)c2)ccc1O (configuration not stated) 35.5 µM [inhibitor, single point], COC(=O)c1c(-c2ccc(Br)cc2)csc1NC(=O)Cc1ccc(OC)c(OC)c1 31.6 µM [activator, single point], O=C(Nc1cc([N+](=O)[O-])ccc1N1CCCC1)c1ccco1 2.51 µM [activator, full curve, poor fit], NCCN1C(=O)S/C(=C\c2ccc3c(c2)OCO3)C1=O 15.8 µM [inhibitor, partial curve, poor fit], c1cncc(Oc2cccc(Oc3cccnc3)c2)c1 35.5 µM [activator, single point], COc1ccc(C(=O)Nc2ccc(Cl)cc2C(=O)NCc2ccco2)cc1 3.98 µM [inhibitor, full curve, poor fit], O=C(Nc1ccc(Nc2ccccc2)cc1)c1ccc(Cl)c([N+](=O)[O-])c1 15.8 µM [activator, single point], COc1cc(C(=O)NC(=S)Nc2cccc(-c3cc4ccccc4oc3=O)c2)cc(OC)c1OC 7.08 µM [inhibitor, partial curve, poor fit], COc1cc(O)c2c(=O)c3c(OC)c(O)ccc3oc2c1 12.6 µM [activator, partial curve], CCCc1ccc(OCCNC(=O)c2ccco2)cc1 11.2 µM [activator, partial curve], COc1ccccc1N(C(=O)c1snc(C(N)=O)c1N)C(C(=O)NCCC(C)C)c1ccco1 (configuration not stated) 22.4 µM [activator, single point], O=C(CSc1n[nH]c(-c2ccco2)n1)Nc1ccc(Br)cc1 31.6 µM [activator, single point], CCOC(=O)C1(Cc2cccc(OC)c2)CCN(Cc2cccc(OCC)c2O)CC1 31.6 µM [activator, single point], CSc1nsc(SC)c1C(=O)OCC(F)(F)F 2.51 µM [activator, partial curve, poor fit], Cc1ccc(S(=O)(=O)N2CCOCC2)cc1NC(=O)COC(=O)CNC(=O)c1ccc(Oc2ccccc2)cc1 31.6 µM [activator, single point], N#C/C(C(=O)c1ccccc1)=C1/CCCN1 6.31 µM [activator, single point], O=C(CN1CCCN(S(=O)(=O)c2ccc(Br)cc2)CC1)Nc1ccc2c(c1)OCO2 15.8 µM [activator, single point], O=C(CC(c1ccccc1)c1ccccc1)NCCOCc1ccccc1 0.0398 µM [activator, full curve, poor fit], Cc1c(C)n(Cc2ccccc2)c2ccc(C(=O)OCCN(C)C)cc12 35.5 µM [inhibitor, single point]

Potency, active:
O=C(CN1C(=O)c2ccccc2S1(=O)=O)c1ccc(F)cc1 7.94 µM, Oc1ccc(C[C@@H]2CNC(=S)N2CCCCC2CCCCC2)cc1 8.91 µM, CCCCNC(=S)Nc1ccc(OC)nc1 10 µM, CCc1cccc(NC(=S)Nc2cccc3ccccc23)c1 3.98 µM, FC(F)(F)c1ccc2c(c1)[nH]c(=S)n2C1CC1 1.41 µM, COC(=O)c1ccc2nc(Nc3nc4c(F)cc(F)cc4s3)sc2c1 0.316 µM, C/C(=N\NC(=O)c1nnn(-c2nonc2N)c1-c1ccccc1)c1ccccc1O 1.78 µM, COc1ccc(N/C=C/C(=O)c2ccccc2)cc1 7.94 µM
